Reference: the supplement of paper PMC12819154, “High-throughput peptide-centric local stability assay extends protein–ligand identification to membrane proteins, tissues and bacteria” (Nature Structural & Molecular Biology, 2025)
The other results are listed elsewhere or left out. Most values lie at the level of the controls, where differences are scatter.

Chains of the proteins cited; added tags and fusions are not shown. Lines headed by an entry give the natural chain unless they say otherwise; changes in a name come on top.
UniProt P27294: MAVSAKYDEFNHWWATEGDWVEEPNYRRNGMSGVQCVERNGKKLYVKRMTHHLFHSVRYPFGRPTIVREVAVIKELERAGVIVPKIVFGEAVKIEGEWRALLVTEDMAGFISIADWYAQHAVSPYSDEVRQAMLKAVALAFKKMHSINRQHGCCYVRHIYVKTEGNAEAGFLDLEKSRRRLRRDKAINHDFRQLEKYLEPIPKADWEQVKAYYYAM
UniProt P33593: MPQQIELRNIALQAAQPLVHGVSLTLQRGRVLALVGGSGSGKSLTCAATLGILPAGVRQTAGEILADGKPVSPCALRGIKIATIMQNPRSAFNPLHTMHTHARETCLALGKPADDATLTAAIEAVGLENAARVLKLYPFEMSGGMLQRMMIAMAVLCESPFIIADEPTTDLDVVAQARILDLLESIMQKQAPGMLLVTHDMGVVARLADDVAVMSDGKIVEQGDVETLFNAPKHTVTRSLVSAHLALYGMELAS
UniProt P31545: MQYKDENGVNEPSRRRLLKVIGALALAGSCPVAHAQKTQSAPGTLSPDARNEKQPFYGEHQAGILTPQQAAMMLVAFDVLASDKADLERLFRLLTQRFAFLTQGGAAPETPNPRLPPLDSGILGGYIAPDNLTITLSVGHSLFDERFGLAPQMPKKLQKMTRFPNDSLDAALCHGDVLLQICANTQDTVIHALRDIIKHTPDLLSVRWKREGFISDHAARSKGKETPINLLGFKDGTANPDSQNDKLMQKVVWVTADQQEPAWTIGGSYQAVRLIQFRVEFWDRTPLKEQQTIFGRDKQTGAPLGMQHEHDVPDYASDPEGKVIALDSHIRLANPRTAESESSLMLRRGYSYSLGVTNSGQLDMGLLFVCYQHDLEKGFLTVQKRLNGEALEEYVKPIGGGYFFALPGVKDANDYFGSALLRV
UniProt P26218: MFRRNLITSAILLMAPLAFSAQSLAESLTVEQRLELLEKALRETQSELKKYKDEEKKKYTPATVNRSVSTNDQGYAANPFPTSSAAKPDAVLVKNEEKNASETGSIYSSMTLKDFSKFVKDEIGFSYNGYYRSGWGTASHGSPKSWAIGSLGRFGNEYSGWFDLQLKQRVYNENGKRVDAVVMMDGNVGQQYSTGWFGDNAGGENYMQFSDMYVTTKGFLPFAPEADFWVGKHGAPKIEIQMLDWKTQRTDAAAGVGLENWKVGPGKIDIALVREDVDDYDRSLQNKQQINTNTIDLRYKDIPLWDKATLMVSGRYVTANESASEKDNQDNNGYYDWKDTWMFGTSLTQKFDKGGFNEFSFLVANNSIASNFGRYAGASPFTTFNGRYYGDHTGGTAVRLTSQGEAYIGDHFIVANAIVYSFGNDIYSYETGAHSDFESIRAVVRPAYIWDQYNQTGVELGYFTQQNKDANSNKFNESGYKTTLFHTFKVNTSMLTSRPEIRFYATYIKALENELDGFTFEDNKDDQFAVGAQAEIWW
UniProt P28629: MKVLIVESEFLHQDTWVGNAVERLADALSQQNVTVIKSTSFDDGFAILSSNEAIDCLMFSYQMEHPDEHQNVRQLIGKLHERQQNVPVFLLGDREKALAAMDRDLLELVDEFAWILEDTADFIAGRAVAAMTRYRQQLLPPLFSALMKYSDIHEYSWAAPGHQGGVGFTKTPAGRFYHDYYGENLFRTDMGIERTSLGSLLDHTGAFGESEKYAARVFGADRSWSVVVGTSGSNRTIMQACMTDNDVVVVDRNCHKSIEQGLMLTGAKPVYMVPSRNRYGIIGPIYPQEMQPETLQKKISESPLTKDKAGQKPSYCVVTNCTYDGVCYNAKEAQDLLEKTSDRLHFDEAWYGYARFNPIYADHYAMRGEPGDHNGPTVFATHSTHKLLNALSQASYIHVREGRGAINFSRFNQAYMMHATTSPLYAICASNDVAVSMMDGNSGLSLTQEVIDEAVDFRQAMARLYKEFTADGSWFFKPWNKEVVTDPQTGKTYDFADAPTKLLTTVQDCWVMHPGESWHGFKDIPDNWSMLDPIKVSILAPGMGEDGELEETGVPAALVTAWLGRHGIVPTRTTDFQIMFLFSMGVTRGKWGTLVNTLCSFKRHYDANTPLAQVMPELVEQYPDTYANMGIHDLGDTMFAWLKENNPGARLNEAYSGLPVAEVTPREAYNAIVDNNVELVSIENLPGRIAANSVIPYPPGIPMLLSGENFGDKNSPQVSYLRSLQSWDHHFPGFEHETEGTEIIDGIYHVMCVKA
UniProt P31806: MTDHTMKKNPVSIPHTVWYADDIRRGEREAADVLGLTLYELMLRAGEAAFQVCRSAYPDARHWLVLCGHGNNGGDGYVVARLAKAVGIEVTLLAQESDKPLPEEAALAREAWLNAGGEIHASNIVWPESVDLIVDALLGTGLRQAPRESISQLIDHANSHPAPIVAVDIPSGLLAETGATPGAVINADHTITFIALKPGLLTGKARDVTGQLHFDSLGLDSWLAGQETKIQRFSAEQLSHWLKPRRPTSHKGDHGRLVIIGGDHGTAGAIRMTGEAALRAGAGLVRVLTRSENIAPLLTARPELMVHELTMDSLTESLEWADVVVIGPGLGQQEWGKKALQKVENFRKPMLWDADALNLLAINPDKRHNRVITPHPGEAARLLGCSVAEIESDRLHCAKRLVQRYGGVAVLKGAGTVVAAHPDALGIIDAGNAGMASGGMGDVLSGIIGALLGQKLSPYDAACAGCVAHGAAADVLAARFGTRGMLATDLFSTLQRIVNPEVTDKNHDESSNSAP
UniProt P25738: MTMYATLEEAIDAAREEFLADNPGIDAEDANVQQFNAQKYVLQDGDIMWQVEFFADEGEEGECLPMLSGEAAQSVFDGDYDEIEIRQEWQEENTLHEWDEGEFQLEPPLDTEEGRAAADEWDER
UniProt P28912: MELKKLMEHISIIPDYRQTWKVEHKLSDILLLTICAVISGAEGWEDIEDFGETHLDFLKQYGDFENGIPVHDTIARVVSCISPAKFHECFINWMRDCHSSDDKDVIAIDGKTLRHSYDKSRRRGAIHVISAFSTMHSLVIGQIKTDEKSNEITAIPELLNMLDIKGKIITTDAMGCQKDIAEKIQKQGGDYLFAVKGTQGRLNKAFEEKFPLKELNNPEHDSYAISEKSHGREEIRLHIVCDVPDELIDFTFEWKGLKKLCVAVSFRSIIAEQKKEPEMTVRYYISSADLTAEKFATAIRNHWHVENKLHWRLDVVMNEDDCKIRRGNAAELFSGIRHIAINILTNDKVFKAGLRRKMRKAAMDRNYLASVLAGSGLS
UniProt P32140: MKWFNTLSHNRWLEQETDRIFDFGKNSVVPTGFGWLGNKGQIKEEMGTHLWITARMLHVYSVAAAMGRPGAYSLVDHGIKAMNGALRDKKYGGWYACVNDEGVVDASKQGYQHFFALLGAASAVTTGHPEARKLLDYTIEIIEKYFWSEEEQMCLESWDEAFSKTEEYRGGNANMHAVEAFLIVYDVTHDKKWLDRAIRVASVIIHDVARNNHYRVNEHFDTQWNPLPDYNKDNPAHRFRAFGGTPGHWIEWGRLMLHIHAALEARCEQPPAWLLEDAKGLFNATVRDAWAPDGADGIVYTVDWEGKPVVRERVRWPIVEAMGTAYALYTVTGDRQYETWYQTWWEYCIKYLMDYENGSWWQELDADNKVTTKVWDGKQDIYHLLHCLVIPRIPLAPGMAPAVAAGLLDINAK
UniProt P31129: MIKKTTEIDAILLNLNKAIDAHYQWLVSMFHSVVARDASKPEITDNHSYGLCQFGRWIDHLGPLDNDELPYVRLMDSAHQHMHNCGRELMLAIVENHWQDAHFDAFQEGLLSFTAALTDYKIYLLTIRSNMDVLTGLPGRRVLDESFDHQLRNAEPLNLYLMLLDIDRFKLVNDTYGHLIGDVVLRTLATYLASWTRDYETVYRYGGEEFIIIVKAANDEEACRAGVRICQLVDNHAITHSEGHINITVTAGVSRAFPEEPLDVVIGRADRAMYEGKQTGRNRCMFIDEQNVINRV
UniProt P31548: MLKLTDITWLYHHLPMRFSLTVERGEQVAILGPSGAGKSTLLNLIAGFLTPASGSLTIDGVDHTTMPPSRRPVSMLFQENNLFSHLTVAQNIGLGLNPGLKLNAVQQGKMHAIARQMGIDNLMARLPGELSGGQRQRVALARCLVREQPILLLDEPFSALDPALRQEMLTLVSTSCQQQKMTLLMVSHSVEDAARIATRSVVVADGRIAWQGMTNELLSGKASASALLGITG
UniProt P28916: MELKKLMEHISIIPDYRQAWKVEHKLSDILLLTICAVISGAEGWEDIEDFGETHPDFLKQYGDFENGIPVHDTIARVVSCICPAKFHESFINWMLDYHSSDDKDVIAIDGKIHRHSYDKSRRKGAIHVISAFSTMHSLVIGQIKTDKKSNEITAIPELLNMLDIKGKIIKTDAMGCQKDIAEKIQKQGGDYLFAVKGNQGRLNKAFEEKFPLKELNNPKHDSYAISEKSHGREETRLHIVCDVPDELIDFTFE
UniProt P27859: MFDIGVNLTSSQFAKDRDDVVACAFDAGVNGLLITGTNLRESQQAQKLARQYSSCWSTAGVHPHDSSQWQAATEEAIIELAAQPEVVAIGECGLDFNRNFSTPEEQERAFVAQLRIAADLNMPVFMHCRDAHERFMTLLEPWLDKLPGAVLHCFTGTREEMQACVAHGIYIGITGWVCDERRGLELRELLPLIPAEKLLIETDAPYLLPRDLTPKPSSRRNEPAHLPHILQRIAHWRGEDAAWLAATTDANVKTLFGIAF
UniProt P28631: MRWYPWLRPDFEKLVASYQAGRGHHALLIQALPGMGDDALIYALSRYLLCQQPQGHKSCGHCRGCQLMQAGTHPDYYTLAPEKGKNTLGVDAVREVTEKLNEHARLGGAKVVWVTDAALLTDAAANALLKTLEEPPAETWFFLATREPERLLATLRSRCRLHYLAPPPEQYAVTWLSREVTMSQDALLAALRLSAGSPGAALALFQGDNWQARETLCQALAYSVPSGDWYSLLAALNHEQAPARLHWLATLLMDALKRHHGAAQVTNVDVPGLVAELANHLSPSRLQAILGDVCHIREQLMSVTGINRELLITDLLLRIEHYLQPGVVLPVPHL
UniProt P32669: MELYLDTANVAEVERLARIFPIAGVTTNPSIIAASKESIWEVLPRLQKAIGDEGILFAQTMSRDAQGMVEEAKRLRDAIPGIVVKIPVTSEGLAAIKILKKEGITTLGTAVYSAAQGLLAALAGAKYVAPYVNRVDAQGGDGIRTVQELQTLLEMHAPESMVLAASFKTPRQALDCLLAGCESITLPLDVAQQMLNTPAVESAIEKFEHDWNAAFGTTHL
UniProt P33020: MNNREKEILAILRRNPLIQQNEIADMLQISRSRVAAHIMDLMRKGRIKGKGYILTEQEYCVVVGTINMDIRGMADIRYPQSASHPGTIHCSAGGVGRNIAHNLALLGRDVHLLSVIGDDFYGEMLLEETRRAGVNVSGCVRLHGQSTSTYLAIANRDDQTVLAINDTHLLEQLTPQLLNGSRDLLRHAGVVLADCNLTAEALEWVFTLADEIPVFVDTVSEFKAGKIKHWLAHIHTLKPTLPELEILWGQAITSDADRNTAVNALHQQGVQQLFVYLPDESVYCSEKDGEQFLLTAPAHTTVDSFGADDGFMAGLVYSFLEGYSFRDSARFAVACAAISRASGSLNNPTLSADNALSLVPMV
UniProt P30749: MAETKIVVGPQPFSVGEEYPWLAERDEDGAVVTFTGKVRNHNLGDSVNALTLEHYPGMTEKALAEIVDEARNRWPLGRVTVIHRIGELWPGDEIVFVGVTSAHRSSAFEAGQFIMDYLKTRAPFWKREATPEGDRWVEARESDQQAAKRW
UniProt P33229: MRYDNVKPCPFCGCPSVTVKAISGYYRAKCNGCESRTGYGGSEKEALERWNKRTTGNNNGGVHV
UniProt P28905: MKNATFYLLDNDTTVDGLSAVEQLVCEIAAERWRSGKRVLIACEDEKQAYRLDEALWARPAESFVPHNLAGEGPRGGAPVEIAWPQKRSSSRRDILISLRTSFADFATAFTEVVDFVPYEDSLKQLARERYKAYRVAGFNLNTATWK
UniProt P25740: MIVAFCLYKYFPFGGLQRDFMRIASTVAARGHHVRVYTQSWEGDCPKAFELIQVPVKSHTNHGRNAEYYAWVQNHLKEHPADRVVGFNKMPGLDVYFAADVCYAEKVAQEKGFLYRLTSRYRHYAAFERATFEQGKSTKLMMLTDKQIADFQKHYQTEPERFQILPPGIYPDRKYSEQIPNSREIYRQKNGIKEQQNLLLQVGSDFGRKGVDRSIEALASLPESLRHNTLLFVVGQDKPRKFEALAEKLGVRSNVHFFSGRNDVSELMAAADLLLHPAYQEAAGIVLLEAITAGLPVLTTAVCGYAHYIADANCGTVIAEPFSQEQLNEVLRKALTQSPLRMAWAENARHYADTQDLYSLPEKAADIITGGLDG
UniProt P27836: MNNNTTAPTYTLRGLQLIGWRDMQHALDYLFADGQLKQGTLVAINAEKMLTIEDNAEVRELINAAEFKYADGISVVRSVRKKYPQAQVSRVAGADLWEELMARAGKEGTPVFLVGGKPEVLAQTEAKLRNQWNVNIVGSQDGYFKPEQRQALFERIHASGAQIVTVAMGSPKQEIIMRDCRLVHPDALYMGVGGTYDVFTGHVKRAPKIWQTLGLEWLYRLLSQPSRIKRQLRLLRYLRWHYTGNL

Compound: CC1(C)S[C@@H]2[C@H](NC(=O)[C@H](N)c3ccccc3)C(=O)N2[C@H]1C(=O)O [ampicillin]
Assay: log2 fold change of tryptic peptide abundance, ligand vs vehicle (limited proteolysis) (log2 ratio); higher = more trypsin-susceptible (destabilized)
Conditions: ligand concentration: 10 uM; sample: E. coli crude lysate

For “UniProt P27294 (peptide sequence: RNGMSGVQCVER, peptide start residue: 28)”, which log2 fold change is on record?
Its log2 fold change is 0.756.

Which log2 fold change does the source give for “UniProt P30843 (peptide sequence: IAGLDVGADDYLVKPFALEELHAR, peptide start residue: 88)” here?
Its log2 fold change is 0.105.

“UniProt P33593 (peptide sequence: IATIMQNPR, peptide start residue: 81)” was tested. Which log2 fold change did it give?
Its log2 fold change is -0.131.

For “UniProt P31545 (peptide sequence: FGLAPQMPK, peptide start residue: 147)”, which log2 fold change is on record?
The log2 fold change was 0.478.

Which log2 fold change does the source give for “UniProt P26218 (peptide sequence: DFSKFVK, peptide start residue: 114)” here?
The log2 fold change was 0.16.

Which log2 fold change does the source give for “UniProt P27298 (peptide sequence: QHLYSISDEQLRPYFPENK, peptide start residue: 343)” here?
The log2 fold change was -0.299.

How did the log2 fold change turn out when “UniProt P28305 (peptide sequence: LQDACQR, peptide start residue: 46)” was run?
The log2 fold change was 0.614.

With “UniProt P28629 (peptide sequence: GEPGDHNGPTVFATHSTHK, peptide start residue: 368)” as the target, how does the log2 fold change read?
The log2 fold change was 0.862.

“UniProt P32053 (peptide sequence: EFIFPSR, peptide start residue: 303)” was tested. Which log2 fold change did it give?
Its log2 fold change is -0.233.

For “UniProt P31806 (peptide sequence: KNPVSIPHTVWYADDIR, peptide start residue: 8)”, which log2 fold change is on record?
The log2 fold change was -0.179.

With “UniProt P25738 (peptide sequence: AAADEWDER, peptide start residue: 116)” as the target, how does the log2 fold change read?
The log2 fold change was -0.038.

Which log2 fold change does the source give for “UniProt P31470 (peptide sequence: RVNLAITAGSTPK, peptide start residue: 29)” here?
Its log2 fold change is -0.22.

How did the log2 fold change turn out when “UniProt P27431 (peptide sequence: EMMLELINQPEHFK, peptide start residue: 252)” was run?
Its log2 fold change is -0.129.

With “UniProt P32134 (peptide sequence: QEANHLLNH, peptide start residue: 318)” as the target, how does the log2 fold change read?
The log2 fold change was 0.729.

Which log2 fold change does the source give for “UniProt P31475 (peptide sequence: TAVREAVKTLTAK, peptide start residue: 52)” here?
The log2 fold change was -0.392.

“UniProt P28912 (peptide sequence: LDVVMNEDDCK, peptide start residue: 313)” was tested. Which log2 fold change did it give?
The log2 fold change was -0.783.

For “UniProt P32140 (peptide sequence: GLFNATVR, peptide start residue: 280)”, which log2 fold change is on record?
Its log2 fold change is -0.111.

“UniProt P31129 (peptide sequence: LVNDTYGHLIGDVVLR, peptide start residue: 171)” was tested. Which log2 fold change did it give?
The log2 fold change was 0.529.

For “UniProt P31548 (peptide sequence: QMGIDNLMAR, peptide start residue: 116)”, which log2 fold change is on record?
Its log2 fold change is -0.47.

Which log2 fold change does the source give for “UniProt P28916 (peptide sequence: DVIAIDGKIHR, peptide start residue: 104)” here?
Its log2 fold change is 0.381.

“UniProt P27859 (peptide sequence: DLTPKPSSR, peptide start residue: 211)” was tested. Which log2 fold change did it give?
Its log2 fold change is 0.141.

With “UniProt P25524 (peptide sequence: WQIANGIQHVR, peptide start residue: 111)” as the target, how does the log2 fold change read?
Its log2 fold change is -0.511.

For “UniProt P25516 (peptide sequence: KTLGLTGEEK, peptide start residue: 823)”, which log2 fold change is on record?
Its log2 fold change is 0.365.

For “UniProt P24241 (peptide sequence: KYQSVQPTVAK, peptide start residue: 470)”, which log2 fold change is on record?
The log2 fold change was -0.517.

“UniProt P24218 (peptide sequence: ELPVYEPKPVSTQTK, peptide start residue: 132)” was tested. Which log2 fold change did it give?
The log2 fold change was -0.527.

Which log2 fold change does the source give for “UniProt P25553 (peptide sequence: ERASEISALIVEEGGK, peptide start residue: 81)” here?
The log2 fold change was -0.43.

“UniProt P28631 (peptide sequence: NTLGVDAVR, peptide start residue: 86)” was tested. Which log2 fold change did it give?
The log2 fold change was 0.117.

“UniProt P32669 (peptide sequence: DAQGMVEEAKR, peptide start residue: 64)” was tested. Which log2 fold change did it give?
Its log2 fold change is 0.336.

How did the log2 fold change turn out when “UniProt P33020 (peptide sequence: FAVACAAISR, peptide start residue: 331)” was run?
The log2 fold change was 0.257.

With “UniProt P30749 (peptide sequence: ESDQQAAK, peptide start residue: 141)” as the target, how does the log2 fold change read?
The log2 fold change was -0.233.

Which log2 fold change does the source give for “UniProt P33229 (peptide sequence: TGYGGSEKEALER, peptide start residue: 37)” here?
Its log2 fold change is -0.479.

For “UniProt P28905 (peptide sequence: VLIACEDEK, peptide start residue: 39)”, which log2 fold change is on record?
Its log2 fold change is 0.484.

Which log2 fold change does the source give for “UniProt P33013 (peptide sequence: TMNVDGLK, peptide start residue: 225)” here?
The log2 fold change was -0.343.

With “UniProt P25740 (peptide sequence: YSEQIPNSR, peptide start residue: 175)” as the target, how does the log2 fold change read?
The log2 fold change was -0.396.

With “UniProt P27836 (peptide sequence: MLTIEDNAEVR, peptide start residue: 49)” as the target, how does the log2 fold change read?
The log2 fold change was 0.208.
